# Library screen at single concentrations

Protein sequences, listed by entry. Tags and fused reporters are not part of them. Residues count along the entry.
UniProt A4I591, 1-473: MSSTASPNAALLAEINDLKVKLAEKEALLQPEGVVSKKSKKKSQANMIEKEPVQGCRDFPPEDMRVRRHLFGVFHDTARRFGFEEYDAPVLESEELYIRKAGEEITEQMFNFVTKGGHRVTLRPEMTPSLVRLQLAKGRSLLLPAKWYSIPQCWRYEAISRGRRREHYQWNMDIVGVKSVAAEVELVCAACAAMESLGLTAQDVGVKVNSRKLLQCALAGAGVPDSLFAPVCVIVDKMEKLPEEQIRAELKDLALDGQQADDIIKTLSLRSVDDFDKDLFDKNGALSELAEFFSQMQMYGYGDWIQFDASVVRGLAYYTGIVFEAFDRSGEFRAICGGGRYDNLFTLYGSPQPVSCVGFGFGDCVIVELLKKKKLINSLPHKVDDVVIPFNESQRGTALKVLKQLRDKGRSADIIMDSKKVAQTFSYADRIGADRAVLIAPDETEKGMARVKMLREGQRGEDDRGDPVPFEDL
UniProt I6X8D2, whole entry: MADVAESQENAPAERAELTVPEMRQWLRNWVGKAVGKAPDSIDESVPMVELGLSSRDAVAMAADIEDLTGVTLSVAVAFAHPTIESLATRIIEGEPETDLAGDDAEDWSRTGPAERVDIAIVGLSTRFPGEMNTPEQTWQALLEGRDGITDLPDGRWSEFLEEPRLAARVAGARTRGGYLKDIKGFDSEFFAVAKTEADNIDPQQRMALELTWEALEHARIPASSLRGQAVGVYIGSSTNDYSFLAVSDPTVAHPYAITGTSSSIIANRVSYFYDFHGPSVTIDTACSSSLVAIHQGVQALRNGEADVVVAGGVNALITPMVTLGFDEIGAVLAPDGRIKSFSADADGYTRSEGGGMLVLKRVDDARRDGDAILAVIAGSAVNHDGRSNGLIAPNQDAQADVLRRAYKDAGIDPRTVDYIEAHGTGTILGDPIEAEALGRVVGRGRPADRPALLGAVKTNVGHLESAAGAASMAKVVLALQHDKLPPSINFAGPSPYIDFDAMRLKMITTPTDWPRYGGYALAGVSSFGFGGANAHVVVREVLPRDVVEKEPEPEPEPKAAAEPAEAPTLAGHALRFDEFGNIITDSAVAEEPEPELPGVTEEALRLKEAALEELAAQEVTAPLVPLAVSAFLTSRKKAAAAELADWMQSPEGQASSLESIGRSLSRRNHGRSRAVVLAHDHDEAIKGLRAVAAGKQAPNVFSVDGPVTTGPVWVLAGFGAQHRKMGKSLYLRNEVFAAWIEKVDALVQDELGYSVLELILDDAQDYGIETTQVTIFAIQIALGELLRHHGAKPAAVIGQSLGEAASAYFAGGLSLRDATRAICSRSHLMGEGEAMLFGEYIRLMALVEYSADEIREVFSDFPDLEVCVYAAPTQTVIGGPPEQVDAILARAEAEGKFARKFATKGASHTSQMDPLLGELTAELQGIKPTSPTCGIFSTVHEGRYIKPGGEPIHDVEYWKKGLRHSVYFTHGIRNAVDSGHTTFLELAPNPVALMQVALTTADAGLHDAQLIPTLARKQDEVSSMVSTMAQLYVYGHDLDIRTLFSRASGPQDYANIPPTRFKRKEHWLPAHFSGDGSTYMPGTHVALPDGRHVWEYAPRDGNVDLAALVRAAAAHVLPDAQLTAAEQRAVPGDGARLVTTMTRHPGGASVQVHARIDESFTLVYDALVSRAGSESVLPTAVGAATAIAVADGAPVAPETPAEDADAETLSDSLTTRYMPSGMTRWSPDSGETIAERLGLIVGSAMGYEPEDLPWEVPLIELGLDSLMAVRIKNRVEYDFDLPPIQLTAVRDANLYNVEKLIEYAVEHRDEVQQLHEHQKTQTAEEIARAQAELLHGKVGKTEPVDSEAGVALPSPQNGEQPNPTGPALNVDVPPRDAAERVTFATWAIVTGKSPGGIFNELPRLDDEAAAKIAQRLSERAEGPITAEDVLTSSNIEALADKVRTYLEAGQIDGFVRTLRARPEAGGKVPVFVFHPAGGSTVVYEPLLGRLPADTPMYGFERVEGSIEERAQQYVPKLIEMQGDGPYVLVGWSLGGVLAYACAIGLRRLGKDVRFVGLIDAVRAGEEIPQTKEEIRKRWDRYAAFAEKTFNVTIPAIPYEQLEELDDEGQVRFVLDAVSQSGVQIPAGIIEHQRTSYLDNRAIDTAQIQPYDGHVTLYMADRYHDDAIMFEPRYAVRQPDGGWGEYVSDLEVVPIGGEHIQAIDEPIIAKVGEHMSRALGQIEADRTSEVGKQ
UniProt P9WFT3, whole entry: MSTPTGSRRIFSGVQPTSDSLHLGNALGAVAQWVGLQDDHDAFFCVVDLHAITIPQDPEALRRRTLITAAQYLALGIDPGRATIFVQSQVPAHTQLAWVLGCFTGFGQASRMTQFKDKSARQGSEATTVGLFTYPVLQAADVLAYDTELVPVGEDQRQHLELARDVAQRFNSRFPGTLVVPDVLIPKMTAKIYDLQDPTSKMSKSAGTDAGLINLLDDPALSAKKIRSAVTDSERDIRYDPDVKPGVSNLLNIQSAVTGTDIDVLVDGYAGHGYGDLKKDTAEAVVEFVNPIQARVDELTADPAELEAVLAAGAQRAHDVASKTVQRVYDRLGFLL
UniProt Q4DA54, 1-478: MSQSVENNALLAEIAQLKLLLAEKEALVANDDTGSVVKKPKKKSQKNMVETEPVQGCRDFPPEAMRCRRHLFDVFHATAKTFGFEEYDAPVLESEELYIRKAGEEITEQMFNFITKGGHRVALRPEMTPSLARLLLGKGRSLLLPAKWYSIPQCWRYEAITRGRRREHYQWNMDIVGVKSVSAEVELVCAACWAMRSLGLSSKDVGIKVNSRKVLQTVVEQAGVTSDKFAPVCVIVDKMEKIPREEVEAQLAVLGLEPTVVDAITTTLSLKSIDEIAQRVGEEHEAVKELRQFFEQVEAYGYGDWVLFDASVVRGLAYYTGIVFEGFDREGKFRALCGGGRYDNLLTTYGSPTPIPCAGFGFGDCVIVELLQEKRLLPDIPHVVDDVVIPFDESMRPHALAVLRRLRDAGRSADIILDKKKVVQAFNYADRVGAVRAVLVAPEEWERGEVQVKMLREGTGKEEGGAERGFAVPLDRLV

Data taken from ChEMBL document CHEMBL3988442, “University of Dundee, Small-Polar-MMV Screening Library” (2021).

LiHisRS: 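Histidine-tRNA ligase, Leishmania infantum (UniProt A4I591). Enzyme assay of histidyl-tRNA synthetase; the read-out is not stated. Concentration: 30 µM. Higher reads as stronger inhibition (inferred: compounds with an IC50 in retests scored well above the rest). The assay is labelled LdHisRS but filed under L. infantum. Of about 69,000 compounds tested this way, about 410 (0.6%) reached 50% or more in at least one test.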
Pks13 thioesterase: 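Enzyme assay of the thioesterase domain of polyketide synthase 13; the read-out is not stated. Target: Polyketide synthase Pks13, Mycobacterium tuberculosis (UniProt I6X8D2). Concentration: 30 µM. The record gives no direction; the compounds picked for IC50 retests had high values, so higher reads as stronger inhibition. About 67,000 compounds were tested under these conditions; 0.46% (about 300) showed 50% or more at least once.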
MtTrpRS: 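Enzyme assay of tryptophanyl-tRNA synthetase; the read-out is not stated. Target: Tryptophan-tRNA ligase, Mycobacterium tuberculosis (UniProt P9WFT3). Concentration: 10 µM. Higher most likely means stronger inhibition; the record gives no direction and few retests gave an IC50. About 65,000 compounds were tested under these conditions; 0.098% (about 64) showed 50% or more at least once.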
TcHisRS: 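Enzyme assay of histidyl-tRNA synthetase; the read-out is not stated. Target: Histidine-tRNA ligase, Trypanosoma cruzi CL Brener (UniProt Q4DA54). Compounds at 30 µM. The record gives no direction; compounds that gave an IC50 in retests scored well above the rest, so higher reads as stronger inhibition. Of about 69,000 compounds tested this way, about 31 (0.045%) reached 50% or more in at least one test.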

The filed quantity is “Percent Effect” (%). How 0% and 100% were set is not recorded. Most values in the screen are low, and negative values occur. Compounds were drawn at random from those tested, without regard to their results. A dash means the value is not listed here; it may have been measured.

| Compound | LiHisRS | Pks13 thioesterase | MtTrpRS | TcHisRS |
|---|---|---|---|---|
| `O=C(NC[C@]1(O)CCN(Cc2ccccc2F)C[C@H]1O)c1c[nH]cn1` | 8.054% | 2.516% | -3.268% | -0.2857% |
| `COc1cccc(CCC2CCCN(C(=O)c3cnccn3)C2)c1` (stereo unspecified) | 6.4% | 7.673% | -1.053% | 0% |
| `CN1CC2(COCCN(c3ncccn3)C2)OCC1=O` (stereo unspecified) | 5% | -13.22% | -7.657% | -2.041% |
| `CCCc1nc(C)c(C(=O)NCCN2CCOCC2)s1` | 3.419% | -19.53% | 8.802% | 4.274% |
| `NCC1CCN(C2CCN(c3ccc(-c4ccco4)cc3)CC2)C1` (stereo unspecified) | 64.29% | 21.18% | 11.73% | 50.59% |
| `CC(=O)N1CC(C)CN(C(=O)c2cnccn2)c2ccccc21` (stereo unspecified) | 3.191% | -6.709% | -4.645% | 3.03% |
| `CN(Cc1cccc(Cl)c1)S(=O)(=O)N1CCOCC1` | 22.86% | -22.57% | -3.072% | -2.174% |
| `Cc1noc2ncc(C(=O)N3CCCC(n4cccn4)C3)cc12` (stereo unspecified) | 9.917% | -5.587% | 4.15% | -0.8403% |
| `CCS(=O)(=O)N1CCN(CC(F)(F)F)CC1` | 15.25% | -31.83% | -2.445% | 1.463% |
| `COc1ncccc1C(=O)N1CC(c2nc(-c3ccco3)no2)C1` | -3.39% | -0.9745% | -0.2366% | 3.415% |
| `CN(Cc1cnn(C)c1)C(=O)CN1CCCCC1Cn1cncn1` (stereo unspecified) | 22.58% | -2.779% | 5.297% | 5.357% |
| `CCN1CCN(C(=O)COc2ccc(CN(C)S(C)(=O)=O)cc2)CC1` | 10.85% | 7.432% | -0.2463% | 1.19% |
| `c1csc(C(CNCc2cccc3c2OCO3)N2CCOCC2)c1` (stereo unspecified) | 5.263% | -43.66% | -0.6303% | 2.924% |
| `CN1CC(C(=O)NCCc2ccc3c(c2)OCO3)CC1=O` (stereo unspecified) | 13.25% | -2.088% | -3.52% | 7.463% |
| `COc1cc(N2CCC3(CC(=O)N(Cc4csc(C)n4)C3)C2)ncn1` (stereo unspecified) | 8.108% | -2.081% | - | 3.315% |
| `CSc1nc2ccsc2c(=O)n1CC(=O)NC1CCCC1` | 14.29% | -77.24% | 2.513% | 0% |
| `c1csc(CN2CC(c3nc(-c4cnccn4)no3)C2)c1` | 17.39% | -21.54% | 1.292% | 3.093% |
| `COCC(=O)N1CCC2(CC1)CC(CC(=O)NC1CC1)c1ccccc12` (stereo unspecified) | 7.843% | -10.58% | -1.822% | 2.732% |
| `CCc1[nH]ncc1C(=O)N1CCN(c2nc(C)cc(OC)n2)CC1` | 12.7% | - | -4.311% | 7.071% |
| `O=C(c1cnn2c1OCCC2)N1CCC2(CC1)OCCO2` | 18.45% | -19.76% | -0.5513% | 2.174% |
| `O=c1ncn(-c2cccc(F)c2)c2ncccc12` | -3.448% | -5.343% | -0.4078% | -1.031% |
| `Cc1ncsc1C(=O)N1CCN(Cc2cscn2)CC1` | 17.98% | -4.65% | -1.174% | 9.548% |
| `Cc1ncc2c(n1)CN(CC(=O)Nc1ccncc1)CC2` | 28.79% | -6.664% | -0.6823% | 0% |
| `CCC(=O)N1CCC(c2nc(N3CCCC3)ncc2S(C)(=O)=O)CC1` | 14.77% | -3.594% | 3.268% | 2.571% |
| `Cc1cccc(NC2CCN(C(=O)Nc3ccncc3)CC2)n1` | 3.571% | -11.93% | 12.52% | -1.744% |
| `Cc1cnn(CCNCC(O)c2ccc(F)c(F)c2)c1` (stereo unspecified) | 3.125% | -0.4525% | 4.231% | -3.867% |
| `CN(Cc1ncc[nH]1)CC1CCOc2ccccc2C1` (stereo unspecified) | 12.7% | -68.9% | -1.321% | -3.59% |
| `Cc1ccccc1CN1CCC2(CCCN2C(=O)C(C)C)CC1` | 23.08% | -28.08% | 13.23% | 2.913% |
| `Cc1nn(C)c2cnn(CC(=O)NCc3ccc(F)cc3)c12` | 15.52% | 10.36% | 1.554% | 0.8696% |
| `CC(C)C(=O)N(C)Cc1nc(N2CCCC2)ncc1-c1ccncc1` | 12.68% | 3.871% | -3.43% | 13.64% |
| `Cc1ncsc1CCC(=O)N1CCN(CCn2cncn2)CC1` | 18.18% | -28.7% | -1.939% | -1.058% |
| `CC(C)N1CCCC(C(=O)NCc2noc(Cc3ccccc3)n2)C1` (stereo unspecified) | 10% | -22.26% | 0.899% | 4.819% |
| `Cc1c(I)cccc1C(=O)NCc1nnc[nH]1` | 13.68% | -30.6% | -4.211% | 10.27% |
| `O=C(C1CCOC1)N1CCN(CCn2cccn2)c2ncccc2C1` (stereo unspecified) | 2.727% | -4.628% | - | 5.291% |
| `Cn1cc(CNC2CCCN(Cc3noc(C4CC4)n3)C2)cn1` (stereo unspecified) | 18.4% | -4.305% | -6.447% | 3.422% |
| `O=C(NCC1CCOC1)c1cc(-c2cccc(Cl)c2)[nH]n1` (stereo unspecified) | 12.4% | 0.4607% | 2.053% | -1.19% |
| `CC(C)C(=O)NCc1ccccc1NS(=O)(=O)c1ccccc1` | 15.62% | -15.36% | -5.248% | 2.128% |
| `CN(C)CCO[C@@H]1CC[C@H]2[C@H]1OCCN2C(=O)CCc1ccccc1` | 15.09% | -4.544% | 0.9444% | 2.703% |
| `Cc1cc(C)c2cc(CNCc3ccco3)c3nn(C)c(=O)n3c2c1` | 26.8% | -29.82% | - | 10% |
| `CCCNc1nnc(S(=O)(=O)CCOCC)s1` | 16.07% | -7.784% | -0.7897% | 0.8772% |
| `CCc1nnc2n1CC(CNCc1nnc(C(C)(C)C)o1)CC2` (stereo unspecified) | 9.91% | -15.4% | -2.279% | 6.667% |
| `Cc1cc(N(C)C)nc(N2CCN(Cc3nccn3C)CC2)n1` | 12.12% | -29.5% | -0.831% | 2.116% |
| `Cc1cc(C(=O)N2CCc3ncc(CN4CCOCC4)n3CC2)no1` | 0% | -29.6% | -0.7846% | 4.972% |
| `CC(C)Cn1cncc1-c1nc2c([nH]1)CC(C)(C)CNC2=O` | 21.43% | - | 5.054% | 2.128% |
| `CC(C)NC(=O)[C@H]1C[C@@H]2[C@@H](C1)OCCN2Cc1ccco1` | 5.556% | -25.78% | 5.669% | -1.493% |